From PubChem BioAssay AID1347423 (Functional Genomics Laboratory (NCATS/FGL), 2020)
Among all 52,000 sequences or so, about 210 (0.4%) were called active.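 Rule for the calls: active = gene whose silencing raises cell survival under the drug, median off-target-corrected z-score across its silencing RNAs 2 or more; inactive = the rest.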 Some of the results follow.

test: Resistance to Poly (ADP-Ribose) Polymerase inhibitor: Gene Identification via Genome-wide siRNA Screen; settings: mouse BRCA2 R2336H ES cells, olaparib, CellTiter-Glo viability; stronger effect = higher value
Procedure, shortened: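 Genome-wide siRNA screen (3 siRNAs/gene, 20 nM) in mouse ES cells carrying hypomorphic BRCA2 R2336H; olaparib 500 nM added 48 h post-transfection, CellTiter-Glo viability 72 h later. Normalized to plate-median negative control; MAD z-scores, gene median, seed-adjusted.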

Row | Sequence | z-score
1 | CCUACCCUAACCAUUACACTT against Enpp5 | inactive: 0.0656
2 | GCGAUACUCCUAAAACAUATT against D330012D11Rik | inactive: -0.211
3 | GGAAUUUGGAGCCGACUGCTT against Mdk | inactive: 0.519
4 | GGUUUAUAUCCGUACACCUTT against Sp2 | inactive: -0.544
5 | GGACUUUGAUAUCAAAGAGTT against Serpina10 | inactive: -0.146
6 | GGAAACACAAGUUCUAGGUTT against Gpx3 | inactive: 0.42
7 | GGAAGUGUCUGCCAGAGAUTT against 2210402C18Rik | inactive: 0.453
8 | GGGAAAUGUGUGUUAUCUGTT against Rnf126 | inactive: 1.17
9 | CCUACAGAGGUGCCAUUGUTT against 1200013P24Rik | inactive: -3.28
10 | CCUCUUAAAACUAAAUCUGTT against Skiip | inactive: 0.39
11 | GGCACAAGACAGUUUGGCATT against Rnf127 | inactive: -1.07
12 | CCAUUUUGAAGCAUAGUACTT against 5730469D23Rik | inactive: 0.118
13 | GGCUCUAGGAUUCAAAUAUTT against Grid1 | inactive: -1.23
14 | GGCAACUAACAGGAAAAAGTT against 4430402I18Rik | inactive: 0.179
15 | GGACAUGAUCAAUGAAGUATT against Calm2 | inactive: -0.334
16 | GCCCUAAAUCCUUUUAUUATT against Trpc7 | inactive: 1.18
17 | GGCCAUUUUAAAUGGGUCATT against Stx16 | inactive: 1.41
18 | GGUGCUUUGUAAACUGUCUTT against Slc26a11 | inactive: -2.11
19 | GGUGCUAAGCUAGACAUUCTT against Mib1 | inactive: -0.815
20 | GGAUGCAGUUCAUGACAAUTT against Ythdf1 | inactive: 2.35
21 | GCUGUUUCCUGAACAAUUCTT against Tram1 | inactive: -1.1
22 | GACCUACCAGAACAUCACUTT against BC012278 | inactive: 0.0962
23 | GGCAGACAUUGCAUUUCUCTT against Coch | inactive: -0.6
24 | GGAGUUAGAAACUCAUUUUTT against Ppargc1b | inactive: 0.729
25 | CCAAGCAUUAUGAGAUGCUTT against Sec23b | inactive: 0.988
26 | CCAUCUACCAUAAACUGUATT against Spata6 | inactive: 1.76

Shown with each value named: part of the list above
GGAAACACAAGUUCUAGGUTT against Gpx3
  z-score: inactive: 0.42
GCUGUUUCCUGAACAAUUCTT against Tram1
  z-score: inactive: -1.1

Next entries.

Row | Sequence | z-score
27 | GCCAUGCAUCUGGAUUUACTT against Nat1 | inactive: -0.0728
28 | GCUGUAUUGAAGGUCCCUUTT against Olfr744 | inactive: -2.34
29 | GGUAGCUGAAGAUGGAGAGTT against Abcc10 | inactive: -0.722
30 | GGACAUUUUUGGGAAAGAUTT against 2310042P20Rik | inactive: -1.4
31 | GGAGUCCACUAUGAGUACGTT against B230114P05Rik | inactive: 0.752
32 | CGUGGAAUCCAGACACUUGTT against 2210006M16Rik | inactive: -1.29
33 | GCUUCUAUUGCCAACAUUGTT against Tcp1 | inactive: -3.3
34 | CCCGGGUUGGGUGUACAUUTT against Sds | inactive: -0.65
35 | CCAGUUGACAGGUUUGAUCTT against Habp4 | inactive: -0.167
36 | GGUCUUCCUGUCUGAAAUATT against Dock7 | inactive: -2.02
37 | GGAGUUCUUUUAUGAUAUCTT against Rph3a | inactive: 0.266
38 | GGAAGGAUUGCCUUUAGGATT against C430048L16Rik | inactive: 0.111
39 | GCUUUGUCAAUAAGCCCACTT against Shc1 | inactive: 0.367
40 | GGAGAUUCGAAGCCUUACUTT against Irak4 | inactive: -0.172
41 | GGACAUCAAGUUCUUGCCATT against Hspa5 | inactive: 2.27
42 | GGCACUUGAAUUUCUAAGUTT against Cbx5 | inactive: 1.18
43 | GCAGGAACACUGGUUUGAATT against DXImx46e | inactive: -1.71
44 | GGACUUUAGUGACAGCUAUTT against 4930563D23Rik | inactive: -1.06
45 | GGAGAAGAGGACAGAAGCCTT against Akt1s1 | inactive: -0.0445
46 | GGAGAGAAAAAAGUCUCUCTT against Olfr66 | inactive: 1.12
47 | GGAGUUCAUGCAAGUCCGATT against 2900055D14Rik | inactive: -0.119
48 | CGAUCCAGACUUUGUCCCUTT against 2610524A10Rik | inactive: -0.488
49 | GGAGAAGAACGAGAAACGUTT against 9430031J16Rik | inactive: -0.94
50 | GGAGCAGUCUCCUUUUUGUTT against Pcnp | inactive: -1.17
51 | GGUCAGAGUACAGCUCCGUTT against Mcpt7 | inactive: -1.55
52 | GCACCAAUACAUUUGGACCTT against 5830411E10Rik | inactive: 0.654

Row | Sequence | z-score
53 | CCGGCUAAGAAAGACAAUUTT against Dnclic1 | inactive: 0.976
54 | GGCUUAUUCCCUAAUUAAATT against LOC217066 | inactive: 0.974
55 | CCAUCUUGAGUGAUAAGAATT against Siat4c | inactive: -0.232
56 | GGUACGAAGAAGACAAAAATT against Tnfsf9 | inactive: 0.469
57 | GCUAAUAUGCCACUGCCCGTT against Pls3 | inactive: 0.0497
58 | GAUGCCCAAUGUGCAAAUGTT against Defcr-rs12 | inactive: 0.0188
59 | GGUGCAUGAAGAGUUAAAATT against Phf17 | inactive: 0.0649
60 | CCAUCCUGCUGUUUGCAUCTT against AB124611 | inactive: 1.39
61 | GGAGAAGUCCAUACGGAUCTT against Gpr18 | inactive: 0.202
62 | GGACAUUGCUGUAUUUAUCTT against 2610027L16Rik | inactive: -0.256
63 | GGCGCAUUCCUCUGUAGAATT against Ddc | inactive: -1.04
64 | GCUUAGAAUCUCUGGACAATT against 3110001H15Rik | inactive: -2.82
65 | GGACGAUCUAGCAUUCAUGTT against D430038H04Rik | inactive: -1.08
66 | GCUUAGUGACCAUCUCCGUTT against E130012A19Rik | inactive: 0.564
67 | GGGCAUUGUUGAGCACCUUTT against Tmem8 | inactive: -1.52
68 | UUUCCUGGAACUCGACAGGTT against Wdr34 | inactive: 1.88
69 | CGAGGCUGAAAGAUUGUAUTT against ORF5 | inactive: -0.694
70 | GGUGGAGACCCUGAUAAGUTT against Harp | inactive: -0.245
71 | GCCCUCGGACUGAAAACAATT against Chrm5 | inactive: 0.861
72 | CCAAUCGGAAAUUUUACUGTT against Sh3yl1 | inactive: -0.233
73 | GGACUUAAGAAAGAUGUGUTT against A130010J15Rik | inactive: 0.386
74 | GGUGCUUCGUUUAUUACCATT against Lig3 | inactive: -1.29
75 | GGAACAAACCAAGUUCACATT against Kcnip2 | inactive: -1.08
76 | CUACACGUAAGGAUGUAUCTT against Faim3 | inactive: 0.533
77 | CGAUACGCUACUGCAGGUGTT against H1fx | inactive: 0.768
78 | CCCUAGGUCAUAGCUUGACTT against AI413414 | inactive: -0.0745

Looked up above:
Value of GGACUUUAGUGACAGCUAUTT against 4930563D23Rik under z-score: inactive: -1.06
Value of GGAGUUCUUUUAUGAUAUCTT against Rph3a under z-score: inactive: 0.266
Value of GGAUGCAGUUCAUGACAAUTT against Ythdf1 under z-score: inactive: 2.35
Value of CCGGCUAAGAAAGACAAUUTT against Dnclic1 under z-score: inactive: 0.976

Carrying on.

Row | Sequence | z-score
79 | GGUAGAAAGUAUGGCUCCATT against Ppp1r9a | inactive: 0.254
80 | GGAAAUAAGCAGCGCAUGCTT against 1810043M15Rik | inactive: 3.37
81 | CCUCAUAGGAGAAUCUCCCTT against 2310076L09Rik | inactive: 1.68
82 | GGUUGGUCCUGAUGAAGAATT against Tnnt2 | inactive: -0.129
83 | GGAAAAGAGUGAUUUCCUATT against Csdufd1 | inactive: 0.804
84 | GGCUUGGAAUGACACUACUTT against Maged1 | inactive: 1.15
85 | GGAGAUGAUCGACGAAGUATT against Tnnc1 | inactive: 1.49
86 | CGUCUACUUAUCAAUAUGATT against Rbm5 | inactive: 1.4
87 | CCGGAAUCAAAACCUCUAGTT against BC021611 | inactive: 0.0833
88 | GCAAGUUGUCCUCACCUGUTT against Mynn | inactive: 0.82
89 | GCCAGACUGAGCUACAAAATT against 1700049E17Rik | inactive: -1.64
90 | CUGCAAACAGAGAGCAGCGTT against 1200009F10Rik | inactive: 2.23
91 | CCUACAAAACCCUCAUGCUTT against Trik | inactive: -0.316
92 | GGUUGACCUGUGCUUUUCGTT against Arr3 | inactive: 0.325
93 | GGAUCAGGAAGUAAACUUCTT against S100a6 | inactive: -0.232
94 | GAAGACGAACUCUACCAGGTT against Folr4 | inactive: 0.447
95 | GGUCAAUUUUAGAGAGAUCTT against Tceb1 | inactive: -0.328
96 | GGAUGAGAAUGGCACCAGUTT against Prima1 | inactive: -0.878
97 | GGAUCAGGAAGGAUUCGGATT against Zfp84 | inactive: -0.498
98 | CCCAGGUGAUUCUGAUAUUTT against Rpl30 | inactive: -2.1
99 | GGGUGAUGUGUUUAUUAAGTT against Crp | inactive: 1.08
100 | GGGAUUGUAUGAGUGCACATT against 5330414O08Rik | inactive: 0.369
101 | GGUGAAGAAGGAGACAAAGTT against 1200015A22Rik | inactive: -2.44
102 | GCUGGAUCACACUAUAUGUTT against 4921509E05Rik | inactive: -0.796
103 | GCAUAAACAGGCAUUAAAUTT against Sav1 | inactive: -0.896
104 | GGUCAACAUUAAAAUACUGTT against Map2k4 | inactive: -1.24
